No constants are given. Whether binding was seen depends on the method and setting. For some of these results: A result given as binding can be weak or reduced; the word gives no strength. For some of these results: Where a sequence is shown, tags or fusion partners need not be part of it.

By UniProt entry, the sequences of proteins in these tests, tags left out. Where a name states a change or a piece, a line headed by the entry shows the natural chain unless it says otherwise.
UniProt A0A3Q0KX63: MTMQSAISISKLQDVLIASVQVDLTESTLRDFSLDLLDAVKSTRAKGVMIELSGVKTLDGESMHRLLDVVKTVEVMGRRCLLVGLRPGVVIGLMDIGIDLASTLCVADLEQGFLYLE

This note sets out measurements from paper PMC9237108, “The Vibrio vulnificus stressosome is an oxygen-sensor involved in regulating iron metabolism” (Communications Biology, 2022).

Assay in all cases: two-hybrid; bacterial two-hybrid (BACTH), T18 and T25 CyaA fusions co-transformed into E. coli BTH101, X-Gal plates with 0.5 mM IPTG at room temperature for up to three days, aerobic; blue in all three replicates counted as positive
For experiment [1], the target named is VvRsbX (VV2_0076), bacterial two-hybrid fusion (Vibrio vulnificus CMCP6).
The target in experiment [2] is VvRsbR (VV2_0073), bacterial two-hybrid fusion (Vibrio vulnificus CMCP6).
Experiment [3] deals with VvRsbS (VV2_0074), bacterial two-hybrid fusion (Vibrio vulnificus CMCP6).
Experiment [4] deals with VvRsbT (VV2_0075), bacterial two-hybrid fusion (Vibrio vulnificus CMCP6).

Consider “VvRsbS (VV2_0074), bacterial two-hybrid fusion (from UniProt A0A3Q0KX63)”, for which the binding result in experiment [1] was “binds”.

B1: VV1_0681 (small STAS-domain protein), bacterial two-hybrid fusion (protein, UniProt A0A3Q0L2H2 1-105)
chain: MSHPQWQQSTDEKVSLSGNLDREQVPSLWRFAQTWKPRNSQVEFSLKTVQRVDSAGMVMLIHLLEHAKKQNCHIMLSFVPAQLRTLFQLSNVEAVVAKHIQSYQG
B1: the binding entry in experiment [2], in experiment [3] and in experiment [4] was “no binding” each time.

B2: VV1_2658 (small STAS-domain protein), bacterial two-hybrid fusion (protein, UniProt A0A3Q0L6B6 1-106)
chain: MELSTLDLNQQTLTLSIVGNFDAHGSRQAQIHIDELINNDRHTDIEVDMSGVEFLDSSGIGAIVYLYKRLVERERTMRIENVRGQPLEIISLLRIDHAIPVNSKQF
Consider B2, for which the binding entry in experiment [2], in experiment [3] and in experiment [4] was “no binding” throughout.

B3: VV2_1159 (small STAS-domain protein), bacterial two-hybrid fusion (protein, UniProt A0A3Q0KZS6 1-99)
chain: MSVMKEVDKTSNTVTLAIEGAFGFNLVQEFRNAYTEHLNSQFIIDLRKVDYIDSAGLGMLLNMQKHLNSADGRIKIINTLPQVRKILLISRFDKKFHIE
In the case of B3, the binding entry in experiment [2], in experiment [3] and in experiment [4] was “no binding” in each case.
